No constants are given. Whether binding was seen depends on the method and setting. Binding seen in cells or lysates may run through a third protein. Some results given as binding are weak or reduced against the parent protein; the word gives no strength.
What was measured:
[1] = target: NANOG (human (endogenous in H9 hESCs)) (UniProt Q9H9S0); test: co-IP; co-immunoprecipitation with NANOG from hESCs (Supplemental Fig. S5C); Western blot; endogenous proteins
[2] = target: DPY30 (human (endogenous in H9 hESCs)) (UniProt Q9C005); test: co-IP; DPY30 or control (IgG) immunoprecipitation from nuclear extracts of hESCs; Western blot; input is 5% of the material; co-immunoprecipitation also done without Activin/Nodal signaling or without NANOG expression (Supplemental Fig. S5D,E: interaction with DPY30 impaired)

Chains of the proteins cited; added tags and fusions are not shown.
UniProt Q9H9S0: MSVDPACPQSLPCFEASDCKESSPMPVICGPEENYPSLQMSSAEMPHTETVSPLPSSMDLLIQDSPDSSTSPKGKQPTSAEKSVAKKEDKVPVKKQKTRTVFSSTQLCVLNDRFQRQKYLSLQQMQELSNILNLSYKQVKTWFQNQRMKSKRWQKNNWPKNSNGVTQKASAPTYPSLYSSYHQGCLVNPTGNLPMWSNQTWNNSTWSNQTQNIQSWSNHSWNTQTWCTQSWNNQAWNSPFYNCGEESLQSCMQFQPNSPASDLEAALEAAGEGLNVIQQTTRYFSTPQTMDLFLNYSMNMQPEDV
UniProt Q9C005: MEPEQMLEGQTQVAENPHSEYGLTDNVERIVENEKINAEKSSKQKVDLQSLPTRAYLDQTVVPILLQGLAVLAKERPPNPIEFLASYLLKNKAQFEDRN
UniProt Q9UMN6: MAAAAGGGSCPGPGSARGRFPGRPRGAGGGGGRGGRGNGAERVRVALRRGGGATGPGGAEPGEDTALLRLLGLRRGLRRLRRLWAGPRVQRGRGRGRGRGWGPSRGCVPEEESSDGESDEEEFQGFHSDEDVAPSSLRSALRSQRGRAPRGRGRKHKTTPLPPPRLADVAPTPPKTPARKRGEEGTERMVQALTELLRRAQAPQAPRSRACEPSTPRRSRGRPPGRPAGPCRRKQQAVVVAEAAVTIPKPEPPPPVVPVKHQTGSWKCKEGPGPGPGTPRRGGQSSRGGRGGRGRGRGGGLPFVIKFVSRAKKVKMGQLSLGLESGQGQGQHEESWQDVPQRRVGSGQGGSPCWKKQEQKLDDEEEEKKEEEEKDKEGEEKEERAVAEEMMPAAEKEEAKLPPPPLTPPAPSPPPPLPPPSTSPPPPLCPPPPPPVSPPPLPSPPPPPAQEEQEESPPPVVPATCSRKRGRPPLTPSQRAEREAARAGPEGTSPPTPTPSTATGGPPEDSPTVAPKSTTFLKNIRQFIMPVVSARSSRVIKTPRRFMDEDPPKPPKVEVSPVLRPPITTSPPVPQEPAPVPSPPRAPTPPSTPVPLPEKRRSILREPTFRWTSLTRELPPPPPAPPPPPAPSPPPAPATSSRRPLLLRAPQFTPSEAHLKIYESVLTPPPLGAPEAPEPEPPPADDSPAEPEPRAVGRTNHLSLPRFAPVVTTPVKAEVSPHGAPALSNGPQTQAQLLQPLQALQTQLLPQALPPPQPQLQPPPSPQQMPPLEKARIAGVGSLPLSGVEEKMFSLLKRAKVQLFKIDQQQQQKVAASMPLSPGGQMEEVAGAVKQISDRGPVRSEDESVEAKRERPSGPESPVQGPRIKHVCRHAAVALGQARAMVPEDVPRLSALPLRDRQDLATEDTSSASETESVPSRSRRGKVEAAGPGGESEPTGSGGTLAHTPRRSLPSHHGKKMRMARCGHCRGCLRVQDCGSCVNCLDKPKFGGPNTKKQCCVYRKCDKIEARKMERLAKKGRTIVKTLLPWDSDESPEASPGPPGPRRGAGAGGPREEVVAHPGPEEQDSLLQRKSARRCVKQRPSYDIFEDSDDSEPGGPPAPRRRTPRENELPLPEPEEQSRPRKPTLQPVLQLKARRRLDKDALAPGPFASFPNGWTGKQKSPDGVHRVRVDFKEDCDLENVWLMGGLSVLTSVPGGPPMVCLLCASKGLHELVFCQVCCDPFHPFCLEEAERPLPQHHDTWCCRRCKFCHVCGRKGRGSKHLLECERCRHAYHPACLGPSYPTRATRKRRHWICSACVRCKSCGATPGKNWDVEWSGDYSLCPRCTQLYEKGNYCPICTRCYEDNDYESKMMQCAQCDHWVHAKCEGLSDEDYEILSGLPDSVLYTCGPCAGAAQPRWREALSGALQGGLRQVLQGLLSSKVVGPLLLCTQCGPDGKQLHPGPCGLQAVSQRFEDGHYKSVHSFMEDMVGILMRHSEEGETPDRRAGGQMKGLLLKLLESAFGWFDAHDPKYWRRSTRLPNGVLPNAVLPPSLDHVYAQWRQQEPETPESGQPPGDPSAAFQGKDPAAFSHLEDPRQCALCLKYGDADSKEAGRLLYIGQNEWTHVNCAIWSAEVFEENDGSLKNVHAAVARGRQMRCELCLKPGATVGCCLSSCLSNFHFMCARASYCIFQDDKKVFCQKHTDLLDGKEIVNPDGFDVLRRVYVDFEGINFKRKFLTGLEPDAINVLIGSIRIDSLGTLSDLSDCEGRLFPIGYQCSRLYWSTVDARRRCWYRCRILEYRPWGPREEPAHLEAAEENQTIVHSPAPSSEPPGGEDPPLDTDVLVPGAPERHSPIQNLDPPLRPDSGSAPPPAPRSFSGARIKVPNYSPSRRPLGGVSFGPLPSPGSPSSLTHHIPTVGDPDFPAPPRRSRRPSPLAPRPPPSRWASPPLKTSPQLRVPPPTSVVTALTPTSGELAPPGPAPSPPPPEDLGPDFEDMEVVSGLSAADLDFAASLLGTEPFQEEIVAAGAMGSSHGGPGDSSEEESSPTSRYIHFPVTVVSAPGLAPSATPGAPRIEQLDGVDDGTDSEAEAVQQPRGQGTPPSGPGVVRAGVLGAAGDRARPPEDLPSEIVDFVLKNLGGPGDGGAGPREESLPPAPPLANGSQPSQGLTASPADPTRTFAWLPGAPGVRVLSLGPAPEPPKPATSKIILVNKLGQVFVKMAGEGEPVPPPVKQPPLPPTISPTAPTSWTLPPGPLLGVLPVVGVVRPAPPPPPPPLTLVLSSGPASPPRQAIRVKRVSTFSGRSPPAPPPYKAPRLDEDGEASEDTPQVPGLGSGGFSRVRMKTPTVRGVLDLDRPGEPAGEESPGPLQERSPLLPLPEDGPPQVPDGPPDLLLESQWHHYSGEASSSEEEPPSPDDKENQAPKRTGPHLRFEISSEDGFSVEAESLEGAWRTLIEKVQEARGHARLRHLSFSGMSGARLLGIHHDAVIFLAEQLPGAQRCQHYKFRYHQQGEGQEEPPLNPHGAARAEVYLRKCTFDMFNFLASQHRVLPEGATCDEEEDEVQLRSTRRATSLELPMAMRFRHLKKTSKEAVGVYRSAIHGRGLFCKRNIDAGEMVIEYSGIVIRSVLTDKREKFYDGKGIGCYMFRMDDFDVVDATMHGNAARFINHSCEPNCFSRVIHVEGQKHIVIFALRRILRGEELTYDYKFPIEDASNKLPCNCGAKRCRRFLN

| Substance | binding [1] | binding [2] |
| --- | --- | --- |
| DPY30 (from UniProt Q9C005 1-99) | binds | – |
| NANOG (from UniProt Q9H9S0 1-305) | – | binds |
| MLL2/KMT2B (from UniProt Q9UMN6 1-2715) (enzyme) | binds | – |

— paper PMC4387713
